# In the supplement of paper PMC7830784:
# Counter-ions that a name gives are not always drawn. The list shows a part of the results. This data set is noisy: repeats of one test often differ as much as different tests do.
# Tested on: Brugia pahangi adult female
# Assay: motility inhibition on day 3 relative to DMSO vehicle; higher = more active
# Conditions: 10 µM; 3 days
row,SMILES,motility inhibition on day 3 [%]
1,CCOP(=S)(OCC)Oc1cc(C)nc(C(C)C)n1 [diazinon],8.99
2,CNC(C)(C)Cc1ccccc1 [mephentermine sulfate],2.87
3,C[C@]12CCC(=O)C(O)=C1CC[C@@H]1[C@@H]2CC[C@]2(C)C(=O)CC[C@@H]12 [formestane],8.6
4,CC(C)C[C@H]1C(=O)N2CCC[C@H]2[C@]2(O)O[C@](NC(=O)[C@@H]3C=C4c5cccc6[nH]c(Br)c(c56)C[C@H]4N(C)C3)(C(C)C)C(=O)N12 [bromocriptine mesylate],45.8
5,C[C@]12CCC(=O)C=C1CC[C@@H]1[C@@H]2CC[C@@]2(C)[C@H]1CC[C@]2(C)O [Methyltestosterone],< 0
6,CN1[C@@H]2CC[C@H]1C[C@@H](OC(=O)C(CO)c1ccccc1)C2 (stereo partly drawn) [Atropine sulfate],11
7,CNCC(O)c1ccc(O)cc1 (stereo not drawn) [oxedrine],< 0
8,CC(=O)NC1CCSC1=O (stereo not drawn) [citiolone],0.0165
9,CCNC(C)Cc1cccc(C(F)(F)F)c1 (racemic) [(±)-Fenfluramine hydrochloride],7.09
10,CCN(CC)CCN1C(=O)CN=C(c2ccccc2F)c2cc(Cl)ccc21 [Flurazepam dihydrochloride],10.9
11,CNC(=O)Oc1ccccc1OC(C)C [propoxur],0.78
12,C[C@]12COC(=O)C[C@@H]1CC[C@@H]1[C@@H]2CC[C@@]2(C)[C@H]1CC[C@]2(C)O [Oxandrolone],6.19
13,c1ccc2c(c1)sc1ccccc12 [dibenzothiophene],10.8
14,O=P1(N(CCCl)CCCl)NCCCO1 (stereo not drawn) [cyclophosphamide hydrate],16.9
15,CCOP(=S)(OCC)Oc1nc(Cl)c(Cl)cc1Cl [chlorpyrifos],1.58
16,C=CCC1(C(C)CCC)C(=O)NC(=S)NC1=O (stereo not drawn) [thiamylal sodium],21.2
17,CCCCCCCCCCCCCCCC[n+]1ccccc1 [cetylpyridinium chloride],93.7
18,CCOc1cc(C=O)ccc1O [ethyl vanillin],9.56
19,C=C1C[C@@H]2[C@H](CC[C@]3(C)C(=O)CC[C@@H]23)[C@@]2(C)C=CC(=O)C=C12 [exemestane],< 0
20,C=C1C[C@@H]2[C@H](CC[C@]3(C)C(=O)CC[C@@H]23)[C@@]2(C)C=CC(=O)C=C12,< 0
21,CCOP(=S)(OCC)Oc1ccc2c(C)c(Cl)c(=O)oc2c1 [coumophos],16.6
22,CN1C(=O)CN=C(c2ccccc2F)c2cc([N+](=O)[O-])ccc21 [Flunitrazepam],16.6
23,CCC1(CC)C(=O)NC(=O)N(C)C1=O [Metharbital],38.9
24,"CNC(C)Cc1ccccc1 (single isomer, unassigned; (+)) [(+)-Methamphetamine hydrochloride]",22.6

row,SMILES,motility inhibition on day 3 [%]
1,N[C@@H]1C[C@H]1c1ccccc1.N[C@H]1C[C@@H]1c1ccccc1 [tranylcypromine],87.1
2,N[C@@H]1C[C@H]1c1ccccc1.N[C@H]1C[C@@H]1c1ccccc1 [Tranylcypromine HCl  (Sigma)],17.8
3,N[C@@H]1C[C@H]1c1ccccc1.N[C@H]1C[C@@H]1c1ccccc1 [tranylcypromine sulfate],11.3
4,C#CC(C)(O)CC (stereo not drawn) [meparfylon],< 0
5,C[N+]1(C)CCCC(OC(=O)C(O)(c2ccccc2)c2ccccc2)C1 (stereo not drawn) [mepenzolate bromide],30.4
6,COC(C)(C)CCC[C@H](C)C/C=C/C(C)=C/C(=O)OC(C)C [methoprene (s)],< 0
7,CN1C(=O)CC(=O)N(c2ccccc2)c2cc(Cl)ccc21 [Clobazam],32.4
8,CCCC(C)(COC(N)=O)COC(=O)NC(C)C (stereo not drawn) [Carisoprodol],48.2
9,Cl[C@H]1[C@H](Cl)[C@@H](Cl)[C@@H](Cl)[C@H](Cl)[C@H]1Cl [lindane],29.4
10,Oc1ccc(Cl)cc1Cc1cc(Cl)ccc1O [dichlorophene],99.9
11,CC(O)CN1CCN(CC(=O)[O-])CCN(CC(=O)[O-])CCN(CC(=O)[O-])CC1.[Gd+3] (stereo not drawn) [gadoteridol],12.4
12,COc1ccc(OC)c(C(O)C(C)N)c1 (stereo not drawn) [Methoxamine hydrochloride],33.2
13,CCC(=O)O[C@H]1CC[C@H]2[C@@H]3CCC4=CC(=O)CC[C@]4(C)[C@H]3CC[C@]12C [testosterone propionate],3.91
14,C[C@@H]1CN([C@H]2CC[C@](C#N)(c3ccc(F)cc3)CC2)CC[C@]1(C(=O)O)c1ccccc1 [Levocabastine??HCl],14.4
15,CCC1(CC)C(=O)NC(=O)NC1=O [barbital],8.41
16,O=C1CCO1 [beta-propiolactone],44.4
17,O=c1[nH]oc2c1CCNC2 [THIP hydrochloride],5.16
18,CCC1(C2=NCCN2)Cc2ccccc2O1 (stereo not drawn) [efaroxan],22.4
19,CC[C@@H](CO)NC(=O)[C@@H]1C=C2c3cccc4[nH]cc(c34)C[C@H]2N(C)C1 [methylergonovine maleate],30.8
20,CCCCOC(=O)c1ccccc1C(=O)OCCCC [dibutyl phthalate],< 0
21,Cc1cc(C(C#N)c2ccc(Cl)cc2)c(Cl)cc1NC(=O)c1cc(I)cc(I)c1O (stereo not drawn) [closantel],0.459
22,O=C(O)c1nn(Cc2ccc(Cl)cc2Cl)c2ccccc12 [lonidamine],5.28
23,C[C@@H]1C[C@@H]([C@H](O)CC2CC(=O)NC(=O)C2)C(=O)[C@@H](C)C1 [cycloheximide],8.39
24,CC(O)(CS(=O)(=O)c1ccc(F)cc1)C(=O)Nc1ccc(C#N)c(C(F)(F)F)c1 (stereo not drawn) [bicalutamide],24.7

# An excerpt of these results, tab-delimited.
row	SMILES	motility inhibition on day 3 [%]
2	N[C@@H]1C[C@H]1c1ccccc1.N[C@H]1C[C@@H]1c1ccccc1 [Tranylcypromine HCl  (Sigma)]	17.8
4	C#CC(C)(O)CC (stereo not drawn) [meparfylon]	< 0
9	Cl[C@H]1[C@H](Cl)[C@@H](Cl)[C@@H](Cl)[C@H](Cl)[C@H]1Cl [lindane]	29.4
15	CCC1(CC)C(=O)NC(=O)NC1=O [barbital]	8.41
16	O=C1CCO1 [beta-propiolactone]	44.4
21	Cc1cc(C(C#N)c2ccc(Cl)cc2)c(Cl)cc1NC(=O)c1cc(I)cc(I)c1O (stereo not drawn) [closantel]	0.459

# (next part)

row,SMILES,motility inhibition on day 3 [%]
1,CCOC(=O)c1cncn1[C@H](C)c1ccccc1 [etomidate],14.8
2,O=c1cccc2n1C[C@@H]1CNC[C@H]2C1 [cytisine],14.3
3,NCC1(CC(=O)O)CCCCC1 [Gabapentin],13.8
4,NCC1(CC(=O)O)CCCCC1 [gabapentin],2.77
5,O=C(CCCN1CCC2(CC1)C(=O)NCN2c1ccccc1)c1ccc(F)cc1 [Spiperone hydrochloride],10.3
6,O=[N+]([O-])O[C@H]1CO[C@H]2[C@@H]1OC[C@H]2O[N+](=O)[O-] [isosorbide dinitrate],69
7,CN1C[C@H](CNC(=O)OCc2ccccc2)C[C@@H]2c3cccc4c3c(cn4C)C[C@H]21 [metergoline],2.07
8,Oc1ccc2c3c1O[C@H]1[C@@H](O)CC[C@@]4(O)[C@@H](C2)N(CC2CCC2)CC[C@]314 [nalbuphine hydrochloride],0.809
9,CC(C)c1cccc(C(C)C)c1O [Propofol],0.969
10,c1ccc2c(c1)OCC(C1=NCCN1)O2 (stereo not drawn) [idazoxan hydrochloride],< 0
11,CC1C=CC=CCCC=CC=CC=CC=CC(OC2OC(C)C(O)C(N)C2O)CC2OC(O)(CC(O)C(O)CCC(O)CC(O)CC(O)CC(=O)OC(C)C(C)C1O)CC(O)C2C(=O)O (stereo not drawn) [nystatin],25.1
12,CC[C@@H](CO)NC(=O)[C@@H]1C=C2c3cccc4c3c(cn4C)C[C@H]2N(C)C1 [methysergide maleate],38.3
13,COc1cc2c(c(OC)c1OC)-c1ccc(OC)c(=O)cc1[C@@H](NC(C)=O)CC2 [colchicine],< 0
14,C[C@]12CC[C@H](O)CC1=CC[C@@H]1[C@@H]2CC[C@]2(C)C(=O)CC[C@@H]12 [prasterone],4.47
15,CC(=O)O[C@H]1C[C@@H]2CC[C@@H]3[C@H](CC[C@@]4(C)[C@H]3C[C@H]([N+]3(C)CCCCC3)[C@@H]4OC(C)=O)[C@@]2(C)C[C@@H]1[N+]1(C)CCCCC1 [pancuronium bromide],< 0
16,CN[C@@H](C)[C@H](O)c1ccccc1 [(-)-Ephedrine],< 0
17,C[C@]12CC[C@H]3[C@@H](CCC4=CC(=O)CC[C@@]43C)[C@@H]1CC[C@@H]2O [testosterone],18.1
18,c1ccc2c(c1)Nc1ccccc1S2 [phenothiazine],82.1
19,O=c1c2ccccc2[se]n1-c1ccccc1 [ebselen],6.53
20,Cc1ccc(/N=C/N(C)/C=N/c2ccc(C)cc2C)c(C)c1 [amitraz],< 0
21,"CC(C)c1cccc(C(C)C)c1OCOP(=O)(O)O [Sodium (2,6-diisopropylphenoxy)methyl Phosphate]",30.8
22,C[C@]12CCC(=O)C=C1C=C[C@@H]1[C@@H]2CC[C@@]2(C)[C@H]1CC[C@@]2(O)CCC(=O)O [canrenoic acid],22.9
23,CC[C@@H](C(=O)[C@@H](C)[C@@H](O)[C@H](C)[C@@H]1O[C@@H]([C@@H](CC)C(=O)O)CC[C@@H]1C)[C@H]1O[C@]2(C=C[C@@H](O)[C@]3(CC[C@@](C)([C@H]4CC[C@](O)(CC)[C@H](C)O4)O3)O2)[C@H](C)C[C@@H]1C [salinomycin],99.7
24,Cc1cccc(C)c1NC(=O)CN1CCCC1=O [nefiracetam],0.687

row,SMILES,motility inhibition on day 3 [%]
1,S=C=NCc1ccccc1 [benzyl isothiocyanate],43.3
2,COP(=O)(OC)OC=C(Cl)Cl [dichlorvos],56.8
3,COP(=O)(OC)C(O)C(Cl)(Cl)Cl (stereo not drawn) [trichlorfon],4.98
4,C=CCN1CC[C@]23c4c5ccc(O)c4O[C@H]2C(=O)CC[C@@]3(O)[C@H]1C5 [naloxone hydrochloride],< 0
5,O=c1n(Cl)c(=O)n(Cl)c(=O)n1Cl [symclosene],3.08
6,CN1C[C@H](C(=O)N[C@]2(C)O[C@@]3(O)[C@@H]4CCCN4C(=O)[C@H](Cc4ccccc4)N3C2=O)C=C2c3cccc4[nH]cc(c34)C[C@H]21 [ergotamine tartrate],19.8
7,[O-][n+]1ccccc1[S-].[O-][n+]1ccccc1[S-].[Zn+2] [pyrithione zinc],99.5
8,O=[N+]([O-])C(Br)(CO)CO [bronopol],15.6
9,CN1[C@@H]2C[C@@H](OC(=O)[C@H](CO)c3ccccc3)C[C@H]1[C@@H]1O[C@@H]12 [scopolamine hydrobromide],14.6
10,CN[C@@H](C)[C@@H](O)c1ccccc1 [(+)-Pseudoephedrine],< 0
11,C=C/C=C\CC1=C(C)[C@@H](OC(=O)[C@@H]2[C@@H](/C=C(\C)C(=O)OC)C2(C)C)CC1=O.C=C/C=C\CC1=C(C)[C@@H](OC(=O)[C@@H]2[C@@H](C=C(C)C)C2(C)C)CC1=O [pyrethrins],23.3
12,NCc1cccnc1 [picolamine],5.55
13,O=C(O)CCCO [sodium oxybate],0.223
14,CC(NC(C)(C)C)C(=O)c1cccc(Cl)c1 (stereo not drawn) [Bupropion hydrochloride],6.99
15,CCOC(=O)CC(SP(=S)(OC)OC)C(=O)OCC (stereo not drawn) [malathion],< 0
16,CN1CC[C@]23c4c5ccc(O)c4O[C@H]2[C@@H](O)C=C[C@H]3[C@H]1C5 [Morphine sulfate salt pentahydrate],8.54
17,CC(N)Cc1ccc(O)cc1 (stereo not drawn) [hydroxyamphetamine hydrobromide],32.9
18,CN1CCN(C(=O)O[C@H]2c3nccnc3C(=O)N2c2ccc(Cl)cn2)CC1 [eszopiclone],9.66
19,O=C1CC[C@@]2(O)[C@H]3Cc4ccc(O)c5c4[C@@]2(CCN3CC2CC2)[C@H]1O5 [naltrexone hydrochloride],7.21
20,NC(=O)c1cc([N+](=O)[O-])cc([N+](=O)[O-])c1 [nitromide],43.1
21,CN[C@@H]1[C@@H](O)[C@@H](O[C@@H]2[C@@H](O)[C@H](O[C@H]3O[C@H](CN)CC[C@H]3N)[C@@H](N)C[C@H]2N)OC[C@]1(C)O.CN[C@@H]1[C@@H](O)[C@@H](O[C@@H]2[C@@H](O)[C@H](O[C@H]3O[C@H]([C@@H](C)N)CC[C@H]3N)[C@@H](N)C[C@H]2N)OC[C@]1(C)O.CN[C@@H]1[C@@H](O)[C@@H](O[C@@H]2[C@@H](O)[C@H](O[C@H]3O[C@H]([C@@H](C)NC)CC[C@H]3N)[C@@H](N)C[C@H]2N)OC[C@]1(C)O [gentamicin sulfate],17.4
